No constants are given. Whether binding was seen depends on the method and setting. For some assays here: Binding can be weak; no strength is given. Sequences can lack the tags named with a protein.
Columns and labels:
[1] = target: FAM19A5-Cκ; experiment: Western blot, 300 ng antigen per well, primary antibody 2 ug/ml, anti-rabbit IgG (Fc specific)-HRP 1:4000
[2] = target: BSA; experiment: Western blot, 300 ng antigen per well, anti-rabbit IgG (Fc specific)-HRP 1:4000

B1: 1-65-scFv-rabbit-Fc-SSS (Fc fusion)
VH: AVTLDESGGGLQTPGGALSLVCKASGFTFSSYQMGWVRQAPGKGLEWVGVINKSGSDTSYGSAVKGRATISRDNGQSTVRLQLNNLRAEDTGTYFCAKGSASYITAATIDAWGHGTEVIVSS
VL: ALTQPSSVSANPGETVKITCSGGGSSGYGYGWYQQKSPSSAPLTVIYWNDKRPSDIPSRFSGSKSGSTHTLTITGVQAEDEAVYFCGNDDYSSDSGYVGVFGAGTTLTVL
[1]
  binding: binds
[2]
  binding: no binding (tested: 2 ug/ml)

Reference: patent US20230357378A1
